In patent US20200347130A1 (JIANGSU HENGRUI MEDICINE, published 2020):
No constants are given. Whether binding was seen depends on the method and setting. Some entries that bind do so weakly or less than the wild type.

Legend:
[1] = molecular target: T1, Biotinylated CD96 antigen (human, UniProt P40200-2 22-503, limits assumed, biotinylated); assay: competition ELISA: antibody B pre-incubated with biotinylated CD96 antigen, added to a plate coated with antibody A, HRP-streptavidin, OD450; competitor: coated ch1720
T1 sequence (looked up): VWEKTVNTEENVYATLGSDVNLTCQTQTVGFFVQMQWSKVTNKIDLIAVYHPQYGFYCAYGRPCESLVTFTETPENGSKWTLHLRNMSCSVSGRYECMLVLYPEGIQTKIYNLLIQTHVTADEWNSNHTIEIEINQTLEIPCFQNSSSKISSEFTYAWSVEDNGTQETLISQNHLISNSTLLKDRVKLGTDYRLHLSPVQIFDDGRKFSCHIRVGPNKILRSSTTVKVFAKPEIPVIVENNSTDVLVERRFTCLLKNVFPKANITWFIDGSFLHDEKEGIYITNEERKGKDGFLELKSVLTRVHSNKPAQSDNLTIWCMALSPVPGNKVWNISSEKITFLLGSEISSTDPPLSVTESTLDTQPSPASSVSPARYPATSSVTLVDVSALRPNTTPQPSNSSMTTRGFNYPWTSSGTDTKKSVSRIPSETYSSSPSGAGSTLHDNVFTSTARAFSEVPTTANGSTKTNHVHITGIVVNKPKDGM
Description: (§1) Competitive assays of different antibodies binding to CD96 protein were used to classify binding epitopes of the antibodies. The specific experimental methods are as follows:
(§2) Antibody A was diluted to a concentration of 2 μg/ml with PBS buffer (Shanghai Yuanpei Biotechnology Co., Ltd. Cat No. B320), pH 7.4, added to a 96-well microtiter plate (Corning, Cat No. CLS3590-100EA) at a volume of 50 μl/well, and coated at 4° C. overnight. After discarding the liquid, 250 μl/well of 5% skim milk (BD skim milk, Cat No. 232100) blocking solution diluted with PBS was added, and the plate was incubated at 37° C. for 3 hours. After blocking, the blocking solution was discarded, and the plate was washed 5 times with PBST buffer (pH 7.4 PBS containing 0.05% tween-20) and stored for later use. Antibody B was diluted to 40 μg/ml and 8 μg/ml with 1% BSA, and Biotinylated CD96 antigen was simultaneously diluted to 4 μg/mL. Subsequently, antibody B and antigen were mixed in a 1:1 volume ratio, pre-incubated at 37° C. for 45 minutes, added into the enzyme plate coated with antibody A, thus incubating the plate in an incubator at 37° C. for 1.5 hours. After incubation, the plate was washed for 5 times with PBST, and 50 μl/well of HRP-labeled streptavidin (Sigma, Cat No. 52438) diluted with sample dilution was added, followed by incubating the plate at 37° C. for 1 hour. After washing the plate 5 times with PBST, 50 μl/well of TMB chromogenic substrate (KPL, Cat No. 52-00-03) was added for color development, followed by adding 50 μl/well of 1M H₂SO₄ to stop the reaction. The absorption value was read at 450 nm with a NOVOStar microplate reader, and the OD value was used to determine whether A and B CD96 antibodies compete with each other. Antibodies that compete with each other fall into the same class of antibodies, otherwise belong to different classes of antibodies (see FIG. 3 and Table 18).

[2] = molecular target: T1, Biotinylated CD96 antigen; assay: competition ELISA: antibody B pre-incubated with biotinylated CD96 antigen, added to a plate coated with antibody A, HRP-streptavidin, OD450; competitor: coated h1718-012
Description: as §1, §2

[3] = molecular target: T1, Biotinylated CD96 antigen; assay: competition ELISA: antibody B pre-incubated with biotinylated CD96 antigen, added to a plate coated with antibody A, HRP-streptavidin, OD450; competitor: coated h1721-003
Description: as §1, §2

[4] = molecular target: T1, Biotinylated CD96 antigen; assay: competition ELISA: antibody B pre-incubated with biotinylated CD96 antigen, added to a plate coated with antibody A, HRP-streptavidin, OD450; competitor: coated h1719-014 (named by the legend paragraph 84)
Description: as §1, §2

[5] = molecular target: T1, Biotinylated CD96 antigen; assay: competition ELISA: antibody B pre-incubated with biotinylated CD96 antigen, added to a plate coated with antibody A, HRP-streptavidin, OD450; competitor: coated h1722-010
Description: as §1
as §2, with “After incubation, the plate was washed for 5 times with PBST, and 50 μl/well of HRP-labeled streptavidin (Sigma, Cat No. 52438) diluted with sample dilution was added, followed by incubating the plate at 37° C. for 1 hour. After washing the plate 5 times with PBST, 50 μl/well of TMB chromogenic substrate (KPL, Cat No. 52-00-03) was added for color development, followed by adding 50 μl/well of 1M H₂SO₄ to stop the reaction.” left out, “Antibodies that compete with each other fall into the same class of antibodies, otherwise belong to different classes of antibodies (see FIG. 3 and Table 18).” left out

Measured: binding

B1: h1718-012 (antibody, V domains shown)
VH: EVQLVQSGAEVKKPGASVKVSCKASGYTITDYNMNWVRQAPGQRLEWIGVINPSYGITDYNQNFKDRVTITVDTSASTAYMELSSLRSEDTAVYYCAIQLRLPGYFDVWGQGTTVTVSS
VL: DIQMTQSPSSLSASVGDRVTITCKASQDINQYLNWFQQKPGKAPKTLIYRANRLVDGVPSRFSGSGSGQDYTLTISSLQPEDFATYYCLKYDEFPYTFGGGTKVEIK
notes: Only variable regions are tied to this name
not listed: [5]
binds: all other assays above

B2: h1719-010 (antibody, V domains shown)
VH: EVTLKESGPVLVKPTETLTLTCTVSGFSLSSYGVSWVRQPPGKGLEWLGVIWGDGNTNYHSVLISRLTISKDTSKSQVVLTLTNMDPVDTATYYCAKQNYYGSRYGYPIDYWGQGTTVTVSS
VL: DIQMTQSPSSVSASVGDRVTITCKATQDVGTAVAWYQQKPGKAPKLLIYWASTRHTGVPSRFSGSGSGTDFTLTISSLQPEDFATYYCQQYGSSVLTFGGGTKVEIK
notes: as for B1
not listed: [5]
binds: all other assays above

B3: h1721-003 (antibody, V domains shown)
VH: EVTLKESGPVLVKPTETLTLTCTVSGFSLSSYGVNWIRQPPGKALEWLGVIWGDGSTNYHSALISRLTISKDTSKSQVVLTLTNMDPVDTATYYCAKNYFYGSRYGYAMDSWGQGTTVTVSS
VL: DIQMTQSPSSLSASVGDRVTITCRASENIYSSLAWYQQKPGKAPKLLIYNAKTLIEGVPSRFSGSGSGTDFTLTISSLQPEDFATYYCQHHYGTPYTFGGGTKVEIK
notes: Only variable regions are tied to this name; also called M721-003
not listed: [5]
binds: all other assays above

B4: ch1720 (antibody, human IgG4 S228P, kappa, V domains shown)
VH: EFQLQQSGPELVKPGASVKISCKASAYSLTDYNMNWVKQSNGKSLEWIGVINPSYGISSYNQKFKGKATLTVDQSSSTAYMHLNSLTSEDSAVYYCARQLRLPGYFDVWGTGTTVTVSS
VL: DIKMTQSPSSKNASLGERVTITCKASQDINSYLNWFQQKPGKSPKTLIYRASRLVDGVPSRFSGSGSGQDYSLTISSLEYEDMGIYYCLKYDEFPYTFGGGTKLEIKR
notes: also called chimeric antibody corresponding to m1720
not listed: [5]
binds: all other assays above

B5: h1722-010 (antibody, V domains shown)
VH: EVQLVQSGAEVKKPGSSVKVSCKASGGTFSDYWMHWVRQAPGQGLEWIGMLHPNSGTTSFNEKFKIRVTITADKSTSTAYMELSSLRSEDTAVYYCASDYSGPFAYWGQGTLVTVSS
VL: DIQLTQSPSSLSASVGDRVTITCSASSSVNYIHWYQQKPGKAPKRWIFDTSKLASGVPSRFSGSGSGTDYTLTISSLQPEDFATYYCQQWRSNPLTFGQGTKLEIK
notes: Only variable regions are tied to this name; also called M722-010
binds: [5]
